Measurements reported in PubChem BioAssay AID504444 (National Center for Advancing Translational Sciences (NCATS), 2011).
In all, about 360,000 compounds went through this assay and about 7,500 (2.1%) were called active. The inconclusive results got no clear call from the source; some entries with a clear call stand among them for comparison. The call rests on the fitted dose curve; in most records, active means well fitted inhibition curve with a large enough effect; inconclusive means small, poorly fitted or top-dose-only effect, or effect the other way; inactive means flat fitted curve, though single readings scatter. A potency beside an inconclusive call is a rough fit, not a confirmed value.

Assay: Nrf2 qHTS screen for inhibitors; further: nearly all actives have a fitted effect of over 60% in size
Details: A549 ARE-Fluc reporter, luciferase luminescence, 18-24 h; activity change, negative = inhibition: at 46 µM (top of the series)
In short: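 Nrf2 function is reported as luminescence of an ARE-controlled luciferase in A549 cells. Compounds were tested at several concentrations, and a CellTiter-Fluor read on the same wells flagged cytotoxicity.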
On the % scale 0 is the no-effect control and ±100 the full control effect; potency means the concentration at half of the fitted maximal effect.

SMILES | Potency | activity change, negative = inhibition
COc1ccc(CNC(=O)Cn2ccc3cc(S(=O)(=O)N4CCCCC4)ccc32)c(OC)c1 | inconclusive: 20.6 µM [falling, partial curve, poor fit] | –
CC1=NN(c2ccc([N+](=O)[O-])cc2)C(=O)C1 | inconclusive: 14.6 µM [falling, partial curve] | –
COc1ccccc1CNC(=O)C1CCCN(c2nn3cc(-c4ccc(F)cc4)nc3s2)C1 (stereo not drawn) | inconclusive: 32.6 µM [falling, single point] | –
CCc1c(C)nc(N2CCN(c3ccccc3)CC2)[nH]c1=O | inconclusive: 5.8 µM [falling, partial curve, poor fit] | –
CCN(CC)CCCNc1ccc2ncn3c4ccc(O)cc4c(=O)c1c23 | inconclusive: 3.26 µM [falling, partial curve, poor fit] | –
O=C(c1ccc(Cl)c(Cl)c1)N1CCC(=O)N(C(COCc2ccccc2)Cc2ccccc2)CC1 (stereo not drawn) | inconclusive: 23.1 µM [falling, single point] | –
COc1c(C)cc(C(=O)C2CCCN(Cc3ccc(Oc4ncccn4)cc3)C2)cc1C (stereo not drawn) | – | inactive: 10.3%
CCOc1ccc(NC(=O)CSc2nnc3c(n2)[nH]c2ccc(S(=O)(=O)N4CCCCC4)cc23)cc1 | – | inactive: 0%
COc1ccc(S(=O)(=O)N2CCN(c3ncnc4c(-c5ccccc5)nsc34)CC2)cc1 | inconclusive: 1.64 µM [falling, partial curve, poor fit] | –
C[C@H](c1ccccc1)n1nnc(COCc2ccccc2)c1C#CCOCc1ccccc1 | inconclusive: 6.51 µM [activator, single point] | –
COC(=O)c1ccc(CNC(=O)c2ccc(S(=O)(=O)N3CCCCCC3)cc2)cc1 | inconclusive: 29.1 µM [falling, partial curve, poor fit] | –
[O-]/C(=C(\C(=S)Nc1ccc(SC(F)F)cc1)[n+]1ccccc1)c1cc(Cl)ccc1Cl | active: 20.6 µM | –
COc1ccc(Oc2nc(SC)nc3ccsc23)cc1 | inconclusive: 29.1 µM [falling, single point] | –
O=C(CSc1nnc(NC(=O)C2CCCCC2)s1)NCc1ccco1 | – | inactive: 2.03%
CCc1ccc2nc3n[nH]c(N)c3cc2c1 | inconclusive: 3.26 µM [activator, full curve] | –
CCn1nc(C(=O)Nc2cccc3ccccc23)c(Cl)c1Cl | – | inactive: 10.5%
O=C(CS(=O)c1ccc(C(F)(F)F)cc1[N+](=O)[O-])Oc1ccccc1 (stereo not drawn) | inconclusive: 11.6 µM [falling, partial curve, poor fit] | –
CC(CNC(=O)c1cc(-c2ccccc2)n[nH]1)c1ccccc1 (stereo not drawn) | inconclusive: 18.4 µM [activator, partial curve] | –

Look-ups from above.
For Potency, CCN(CC)CCCNc1ccc2ncn3c4ccc(O)cc4c(=O)c1c23 reads inconclusive: 3.26 µM [falling, partial curve, poor fit]
For Potency, CCc1ccc2nc3n[nH]c(N)c3cc2c1 reads inconclusive: 3.26 µM [activator, full curve]
